This test has as its target T1, GvpA-based gas vesicles, shell of the major shell protein GvpA from Anabaena flos-aquae (Anabaena flos-aquae) (UniProt P10397).
T1 sequence: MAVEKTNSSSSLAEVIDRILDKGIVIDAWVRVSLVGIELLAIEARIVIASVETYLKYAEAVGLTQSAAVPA
In words: co-sedimentation.

These are yes or no findings as the source states them, for the method shown. Binding seen in cells or lysates may run through a third protein. Some results given as binding are weak or reduced against the parent protein; the word gives no strength.

B1: GvpC, minor shell protein from A. flos-aquae (protein, UniProt P09413 1-193)
chain: MISLMAKIRQEHQSIAEKVAELSLETREFLSVTTAKRQEQAEKQAQELQAFYKDLQETSQQFLSETAQARIAQAEKQAQELLAFHKELQETSQQFLSATAQARIAQAEKQAQELLAFYQEVRETSQQFLSATAQARIAQAEKQAQELLAFHKELQETSQQFLSATADARTAQAKEQKESLLKFRQDLFVSIFG
For the molecule B1, the binding entry is given as “binds”.

These data come from publication doi:10.1101/2023.06.01.543273.
